Test results from article PMC9381590.

Chains of the proteins cited; added tags and fusions are not shown. Lines headed by an entry give the natural chain unless they say otherwise; changes in a name come on top.
UniProt Q13838: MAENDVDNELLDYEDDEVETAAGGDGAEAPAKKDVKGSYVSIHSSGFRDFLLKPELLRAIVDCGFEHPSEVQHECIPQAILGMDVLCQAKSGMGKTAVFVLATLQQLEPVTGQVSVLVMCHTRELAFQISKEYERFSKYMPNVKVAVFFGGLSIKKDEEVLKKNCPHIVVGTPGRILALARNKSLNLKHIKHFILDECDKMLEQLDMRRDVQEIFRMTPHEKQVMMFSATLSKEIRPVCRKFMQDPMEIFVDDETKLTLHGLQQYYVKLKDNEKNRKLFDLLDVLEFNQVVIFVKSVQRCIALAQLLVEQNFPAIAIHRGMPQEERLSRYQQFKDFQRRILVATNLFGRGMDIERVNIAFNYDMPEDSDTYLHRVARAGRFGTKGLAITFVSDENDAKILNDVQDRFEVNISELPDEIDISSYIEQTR
UniProt P04406: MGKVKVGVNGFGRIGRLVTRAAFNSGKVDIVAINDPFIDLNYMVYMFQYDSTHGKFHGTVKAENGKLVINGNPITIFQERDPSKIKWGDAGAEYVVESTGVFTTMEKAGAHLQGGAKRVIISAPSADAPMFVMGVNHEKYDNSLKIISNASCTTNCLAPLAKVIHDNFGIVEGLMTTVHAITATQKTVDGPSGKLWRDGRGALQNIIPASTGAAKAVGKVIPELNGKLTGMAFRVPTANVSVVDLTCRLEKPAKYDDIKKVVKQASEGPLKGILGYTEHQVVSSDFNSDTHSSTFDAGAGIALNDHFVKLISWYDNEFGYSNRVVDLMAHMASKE
UniProt P14618: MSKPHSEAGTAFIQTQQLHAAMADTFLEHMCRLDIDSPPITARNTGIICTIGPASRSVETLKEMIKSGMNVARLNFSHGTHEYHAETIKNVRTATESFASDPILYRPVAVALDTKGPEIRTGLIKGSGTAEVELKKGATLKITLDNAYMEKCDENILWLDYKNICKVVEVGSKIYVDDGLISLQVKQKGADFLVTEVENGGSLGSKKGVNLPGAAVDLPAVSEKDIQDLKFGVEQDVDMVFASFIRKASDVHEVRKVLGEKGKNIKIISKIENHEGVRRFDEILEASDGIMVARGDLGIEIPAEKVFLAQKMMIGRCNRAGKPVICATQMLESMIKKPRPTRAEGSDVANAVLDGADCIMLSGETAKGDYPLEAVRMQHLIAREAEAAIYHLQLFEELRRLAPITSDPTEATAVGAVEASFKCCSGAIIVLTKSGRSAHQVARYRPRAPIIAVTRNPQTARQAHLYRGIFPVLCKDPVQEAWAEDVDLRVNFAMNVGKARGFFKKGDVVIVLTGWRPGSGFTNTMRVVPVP

Target: FLAG-DDX39B (human) (UniProt Q13838)
Assay: affinity purification with mass spectrometry; lysates of CRC cells stably expressing FLAG-vector or FLAG-DDX39B, anti-FLAG M2 magnetic beads, SDS-PAGE bands, LC-MS/MS

| binding | Substance |
| --- | --- |
| binds | GAPDH (from UniProt P04406 1-335) |
| binds | PKM (from UniProt P14618 1-531) |

These are yes or no findings as the source states them, for the method shown. In cells and extracts the contact can be indirect. Here binding means that the protein was enriched with, or labelled near, the bait; the list need not be complete.
